This passage reports log2 fold change results from the supplement of paper PMC12819154, “High-throughput peptide-centric local stability assay extends protein–ligand identification to membrane proteins, tissues and bacteria” (Nature Structural & Molecular Biology, 2025).

Protein sequences, listed by entry. Tags and fused reporters are not part of them. Lines headed by an entry give the natural chain unless they say otherwise; changes in a name come on top.
UniProt Q9NPF5, whole entry: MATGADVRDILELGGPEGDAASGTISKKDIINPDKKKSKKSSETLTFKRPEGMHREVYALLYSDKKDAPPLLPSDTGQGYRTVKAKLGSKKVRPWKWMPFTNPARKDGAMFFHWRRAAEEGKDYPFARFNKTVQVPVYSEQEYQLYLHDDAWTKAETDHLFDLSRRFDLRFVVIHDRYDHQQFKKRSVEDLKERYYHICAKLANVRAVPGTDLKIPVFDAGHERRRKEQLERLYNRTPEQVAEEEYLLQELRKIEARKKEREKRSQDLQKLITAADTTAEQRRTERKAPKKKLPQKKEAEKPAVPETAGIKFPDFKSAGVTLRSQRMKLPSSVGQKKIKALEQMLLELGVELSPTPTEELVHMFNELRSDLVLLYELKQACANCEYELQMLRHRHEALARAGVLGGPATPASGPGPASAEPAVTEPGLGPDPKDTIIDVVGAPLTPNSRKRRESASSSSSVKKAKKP
UniProt Q9HAU0: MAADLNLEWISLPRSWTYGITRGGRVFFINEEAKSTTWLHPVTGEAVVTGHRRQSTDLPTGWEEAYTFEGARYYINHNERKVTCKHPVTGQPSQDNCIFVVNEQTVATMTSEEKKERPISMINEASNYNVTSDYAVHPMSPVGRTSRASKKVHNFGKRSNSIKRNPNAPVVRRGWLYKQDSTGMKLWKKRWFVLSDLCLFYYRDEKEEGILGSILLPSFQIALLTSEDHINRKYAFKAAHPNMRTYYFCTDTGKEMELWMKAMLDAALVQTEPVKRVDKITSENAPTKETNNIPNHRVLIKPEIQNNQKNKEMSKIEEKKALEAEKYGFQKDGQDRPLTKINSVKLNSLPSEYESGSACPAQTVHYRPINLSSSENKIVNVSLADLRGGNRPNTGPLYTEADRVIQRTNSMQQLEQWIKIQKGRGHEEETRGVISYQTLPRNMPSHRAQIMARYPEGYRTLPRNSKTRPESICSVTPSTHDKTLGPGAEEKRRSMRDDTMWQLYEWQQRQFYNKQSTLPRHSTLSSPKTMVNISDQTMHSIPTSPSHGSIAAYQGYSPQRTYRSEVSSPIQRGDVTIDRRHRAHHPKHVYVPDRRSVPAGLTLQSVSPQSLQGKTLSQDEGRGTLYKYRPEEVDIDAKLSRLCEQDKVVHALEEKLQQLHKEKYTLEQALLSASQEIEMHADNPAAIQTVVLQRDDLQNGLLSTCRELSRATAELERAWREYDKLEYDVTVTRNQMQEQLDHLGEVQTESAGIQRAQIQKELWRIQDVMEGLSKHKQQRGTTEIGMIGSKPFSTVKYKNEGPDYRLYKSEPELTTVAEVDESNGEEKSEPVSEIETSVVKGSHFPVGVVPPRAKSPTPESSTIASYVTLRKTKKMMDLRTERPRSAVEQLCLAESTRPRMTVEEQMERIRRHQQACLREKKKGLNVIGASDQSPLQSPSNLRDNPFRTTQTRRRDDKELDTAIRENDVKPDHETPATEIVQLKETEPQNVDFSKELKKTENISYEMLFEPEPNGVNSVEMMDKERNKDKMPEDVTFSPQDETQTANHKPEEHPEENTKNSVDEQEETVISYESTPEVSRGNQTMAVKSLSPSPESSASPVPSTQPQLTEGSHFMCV
UniProt Q9H4L4: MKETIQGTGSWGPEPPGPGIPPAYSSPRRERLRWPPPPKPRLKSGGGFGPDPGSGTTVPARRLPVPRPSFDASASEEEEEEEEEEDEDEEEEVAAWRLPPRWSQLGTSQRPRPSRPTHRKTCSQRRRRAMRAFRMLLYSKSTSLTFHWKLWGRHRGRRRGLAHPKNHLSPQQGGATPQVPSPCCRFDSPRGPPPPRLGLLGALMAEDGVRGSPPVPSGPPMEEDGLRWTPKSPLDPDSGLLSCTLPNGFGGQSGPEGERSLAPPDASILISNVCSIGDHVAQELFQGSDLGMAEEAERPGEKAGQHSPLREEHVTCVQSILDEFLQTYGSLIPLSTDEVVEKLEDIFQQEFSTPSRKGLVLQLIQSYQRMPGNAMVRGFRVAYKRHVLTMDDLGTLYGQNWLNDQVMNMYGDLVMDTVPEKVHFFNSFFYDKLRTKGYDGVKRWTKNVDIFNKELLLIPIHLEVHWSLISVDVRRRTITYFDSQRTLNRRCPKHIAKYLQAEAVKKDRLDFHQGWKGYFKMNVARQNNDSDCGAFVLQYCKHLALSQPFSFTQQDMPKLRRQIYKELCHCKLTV
UniProt Q9HAD4: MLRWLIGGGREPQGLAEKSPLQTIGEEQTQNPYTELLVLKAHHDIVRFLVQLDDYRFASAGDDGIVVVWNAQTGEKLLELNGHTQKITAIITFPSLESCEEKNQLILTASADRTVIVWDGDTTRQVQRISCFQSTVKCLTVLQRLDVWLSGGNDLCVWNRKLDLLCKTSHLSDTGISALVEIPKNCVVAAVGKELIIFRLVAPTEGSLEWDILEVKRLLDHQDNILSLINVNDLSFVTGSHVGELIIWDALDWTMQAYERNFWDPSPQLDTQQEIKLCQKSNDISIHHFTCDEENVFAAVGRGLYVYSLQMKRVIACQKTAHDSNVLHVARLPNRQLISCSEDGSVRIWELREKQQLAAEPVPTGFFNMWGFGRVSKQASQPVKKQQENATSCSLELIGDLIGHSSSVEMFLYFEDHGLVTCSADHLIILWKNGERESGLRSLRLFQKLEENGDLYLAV
UniProt Q9H4X1: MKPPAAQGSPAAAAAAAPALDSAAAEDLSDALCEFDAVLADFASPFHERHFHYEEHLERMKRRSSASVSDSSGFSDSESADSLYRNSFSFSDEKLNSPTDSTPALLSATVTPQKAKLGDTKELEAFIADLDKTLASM
UniProt Q9HCS7: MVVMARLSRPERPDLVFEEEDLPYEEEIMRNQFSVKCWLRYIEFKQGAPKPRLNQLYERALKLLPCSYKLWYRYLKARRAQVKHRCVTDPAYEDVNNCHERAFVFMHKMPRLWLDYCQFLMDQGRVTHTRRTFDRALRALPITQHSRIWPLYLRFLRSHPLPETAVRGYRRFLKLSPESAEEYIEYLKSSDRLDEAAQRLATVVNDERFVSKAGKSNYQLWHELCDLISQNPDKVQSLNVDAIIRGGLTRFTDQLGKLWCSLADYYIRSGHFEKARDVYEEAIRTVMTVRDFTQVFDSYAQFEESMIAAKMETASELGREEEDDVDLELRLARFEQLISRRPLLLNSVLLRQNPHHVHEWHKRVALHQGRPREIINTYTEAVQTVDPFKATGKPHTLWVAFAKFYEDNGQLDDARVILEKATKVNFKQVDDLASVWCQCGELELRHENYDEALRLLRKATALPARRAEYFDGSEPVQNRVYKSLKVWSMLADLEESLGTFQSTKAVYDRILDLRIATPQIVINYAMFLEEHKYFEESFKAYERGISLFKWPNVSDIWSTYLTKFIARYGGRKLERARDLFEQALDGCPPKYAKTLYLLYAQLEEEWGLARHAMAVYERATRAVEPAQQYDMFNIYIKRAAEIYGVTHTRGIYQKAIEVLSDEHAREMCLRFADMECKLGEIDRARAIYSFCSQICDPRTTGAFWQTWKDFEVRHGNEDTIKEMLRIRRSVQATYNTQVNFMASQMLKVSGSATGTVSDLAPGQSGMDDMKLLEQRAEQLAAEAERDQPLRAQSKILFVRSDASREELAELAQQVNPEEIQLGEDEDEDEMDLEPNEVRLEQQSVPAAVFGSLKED
UniProt Q9H4H8: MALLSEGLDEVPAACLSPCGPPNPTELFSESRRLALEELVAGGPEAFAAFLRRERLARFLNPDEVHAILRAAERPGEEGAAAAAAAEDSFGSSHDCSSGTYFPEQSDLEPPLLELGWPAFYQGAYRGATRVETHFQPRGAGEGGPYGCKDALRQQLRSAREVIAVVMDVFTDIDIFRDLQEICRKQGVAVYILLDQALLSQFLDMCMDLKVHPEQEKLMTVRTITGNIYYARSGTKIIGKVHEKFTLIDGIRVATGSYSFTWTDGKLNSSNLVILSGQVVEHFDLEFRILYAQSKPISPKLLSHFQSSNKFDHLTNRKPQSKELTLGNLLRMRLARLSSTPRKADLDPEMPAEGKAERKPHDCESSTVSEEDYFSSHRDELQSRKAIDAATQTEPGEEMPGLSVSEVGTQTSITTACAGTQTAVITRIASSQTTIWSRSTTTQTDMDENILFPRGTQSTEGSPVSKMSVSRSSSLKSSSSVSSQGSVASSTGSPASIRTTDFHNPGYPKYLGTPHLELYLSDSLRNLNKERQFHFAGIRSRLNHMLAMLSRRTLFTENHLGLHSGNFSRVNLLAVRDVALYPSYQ
UniProt Q9NPA8: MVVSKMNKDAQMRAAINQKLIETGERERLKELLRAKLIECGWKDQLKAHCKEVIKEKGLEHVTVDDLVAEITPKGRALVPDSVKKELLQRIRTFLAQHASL
UniProt Q9H7E9: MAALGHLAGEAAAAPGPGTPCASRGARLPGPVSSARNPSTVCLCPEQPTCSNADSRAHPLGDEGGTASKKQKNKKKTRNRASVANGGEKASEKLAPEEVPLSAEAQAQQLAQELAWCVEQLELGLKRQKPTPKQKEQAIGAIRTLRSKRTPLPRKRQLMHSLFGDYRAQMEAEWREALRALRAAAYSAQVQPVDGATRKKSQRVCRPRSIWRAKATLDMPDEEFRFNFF
UniProt Q9HCI7: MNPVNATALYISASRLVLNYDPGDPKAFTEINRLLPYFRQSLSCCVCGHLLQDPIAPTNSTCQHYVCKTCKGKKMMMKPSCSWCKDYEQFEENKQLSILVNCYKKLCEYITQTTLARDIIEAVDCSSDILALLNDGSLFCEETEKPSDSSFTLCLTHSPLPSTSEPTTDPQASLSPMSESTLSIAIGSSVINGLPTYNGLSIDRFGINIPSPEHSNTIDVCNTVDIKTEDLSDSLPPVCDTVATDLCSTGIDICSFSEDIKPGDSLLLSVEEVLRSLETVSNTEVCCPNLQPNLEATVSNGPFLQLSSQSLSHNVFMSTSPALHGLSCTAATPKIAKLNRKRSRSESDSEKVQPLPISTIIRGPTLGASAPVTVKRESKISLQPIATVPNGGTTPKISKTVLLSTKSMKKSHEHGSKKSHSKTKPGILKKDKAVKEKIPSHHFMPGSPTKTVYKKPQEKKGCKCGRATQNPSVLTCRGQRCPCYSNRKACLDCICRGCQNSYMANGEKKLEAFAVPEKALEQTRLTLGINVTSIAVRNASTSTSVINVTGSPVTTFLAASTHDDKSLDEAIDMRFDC

Some of the results follow. Most entries show no effect beyond the scatter of the controls.

Compound in this assay: CN[C@@H]1C[C@H]2O[C@@](C)([C@@H]1OC)n1c3ccccc3c3c4c(c5c6ccccc6n2c5c31)C(=O)NC4 [staurosporine]
The assay is described as follows: log2 fold change of tryptic peptide abundance, ligand vs vehicle (limited proteolysis) (log2 ratio); higher = more trypsin-susceptible (destabilized). To be noted: ligand concentration: 20 uM; sample: K562 cleared lysate; digestion: 4 min, 22 C (HT-PELSA RT4min, Orbitrap Astral).
With “DMAP1 (peptide sequence: DTIIDVVGAPLTPNSR, peptide start residue: 434) (UniProt Q9NPF5)”, the log2 fold change was found to be 0.4.
For the target “PLEKHA5 (peptide sequence: VFFINEEAK, peptide start residue: 26) (UniProt Q9HAU0)”, the log2 fold change is -0.218.
“SENP3 (peptide sequence: HLALSQPFSFTQQDMPK, peptide start residue: 542) (UniProt Q9H4L4)”: the log2 fold change stood at 1.01.
On to “WDR41 (peptide sequence: TVIVWDGDTTR, peptide start residue: 114) (UniProt Q9HAD4)”, for which the log2 fold change is -0.409.
For “RGCC (peptide sequence: HFHYEEHLER, peptide start residue: 50) (UniProt Q9H4X1)”, the log2 fold change was -0.271.
Turning to “XAB2 (peptide sequence: AIEVLSDEHAR, peptide start residue: 655) (UniProt Q9HCS7)”, the log2 fold change is -0.212.
For “FAM83D (peptide sequence: GTQSTEGSPVSK, peptide start residue: 455) (UniProt Q9H4H8)”, the log2 fold change is -0.264.
As to “UniProt Q9NPA8 (peptide sequence: ALVPDSVKK, peptide start residue: 77)”, the log2 fold change amounted to 0.186.
As to “C8orf33 (peptide sequence: AALGHLAGEAAAAPGPGTPCASR, peptide start residue: 2) (UniProt Q9H7E9)”, the log2 fold change is -0.313.
For “MSL2 (peptide sequence: SLDEAIDMR, peptide start residue: 566) (UniProt Q9HCI7)”, the log2 fold change is -0.214.
